Source: publication PMC8076227
No constants are given. Whether binding was seen depends on the method and setting. In cells and extracts the contact can be indirect. A yes stands for co-enrichment or nearness to the bait. Other partners may have been found.

Amino acid sequences for entries named in this document (tags omitted). A change or cut given only in a name is not applied to a line headed by its entry. Chains listed by the source or under a name are the forms on record and can include a tag or linker.
UniProt Q06710: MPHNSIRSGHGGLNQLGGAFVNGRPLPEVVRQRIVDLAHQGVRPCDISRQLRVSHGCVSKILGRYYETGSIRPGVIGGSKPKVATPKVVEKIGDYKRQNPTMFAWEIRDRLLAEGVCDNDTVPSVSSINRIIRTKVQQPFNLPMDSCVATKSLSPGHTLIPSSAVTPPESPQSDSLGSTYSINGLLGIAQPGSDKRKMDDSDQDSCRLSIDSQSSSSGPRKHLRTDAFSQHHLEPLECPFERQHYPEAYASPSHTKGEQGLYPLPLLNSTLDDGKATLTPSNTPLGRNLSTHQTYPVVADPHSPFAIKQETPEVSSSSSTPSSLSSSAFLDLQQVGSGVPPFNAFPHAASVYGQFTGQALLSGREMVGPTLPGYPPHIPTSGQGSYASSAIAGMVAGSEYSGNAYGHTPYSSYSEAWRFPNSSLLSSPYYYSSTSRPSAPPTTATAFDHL
MECOM (Q03112-3, form named): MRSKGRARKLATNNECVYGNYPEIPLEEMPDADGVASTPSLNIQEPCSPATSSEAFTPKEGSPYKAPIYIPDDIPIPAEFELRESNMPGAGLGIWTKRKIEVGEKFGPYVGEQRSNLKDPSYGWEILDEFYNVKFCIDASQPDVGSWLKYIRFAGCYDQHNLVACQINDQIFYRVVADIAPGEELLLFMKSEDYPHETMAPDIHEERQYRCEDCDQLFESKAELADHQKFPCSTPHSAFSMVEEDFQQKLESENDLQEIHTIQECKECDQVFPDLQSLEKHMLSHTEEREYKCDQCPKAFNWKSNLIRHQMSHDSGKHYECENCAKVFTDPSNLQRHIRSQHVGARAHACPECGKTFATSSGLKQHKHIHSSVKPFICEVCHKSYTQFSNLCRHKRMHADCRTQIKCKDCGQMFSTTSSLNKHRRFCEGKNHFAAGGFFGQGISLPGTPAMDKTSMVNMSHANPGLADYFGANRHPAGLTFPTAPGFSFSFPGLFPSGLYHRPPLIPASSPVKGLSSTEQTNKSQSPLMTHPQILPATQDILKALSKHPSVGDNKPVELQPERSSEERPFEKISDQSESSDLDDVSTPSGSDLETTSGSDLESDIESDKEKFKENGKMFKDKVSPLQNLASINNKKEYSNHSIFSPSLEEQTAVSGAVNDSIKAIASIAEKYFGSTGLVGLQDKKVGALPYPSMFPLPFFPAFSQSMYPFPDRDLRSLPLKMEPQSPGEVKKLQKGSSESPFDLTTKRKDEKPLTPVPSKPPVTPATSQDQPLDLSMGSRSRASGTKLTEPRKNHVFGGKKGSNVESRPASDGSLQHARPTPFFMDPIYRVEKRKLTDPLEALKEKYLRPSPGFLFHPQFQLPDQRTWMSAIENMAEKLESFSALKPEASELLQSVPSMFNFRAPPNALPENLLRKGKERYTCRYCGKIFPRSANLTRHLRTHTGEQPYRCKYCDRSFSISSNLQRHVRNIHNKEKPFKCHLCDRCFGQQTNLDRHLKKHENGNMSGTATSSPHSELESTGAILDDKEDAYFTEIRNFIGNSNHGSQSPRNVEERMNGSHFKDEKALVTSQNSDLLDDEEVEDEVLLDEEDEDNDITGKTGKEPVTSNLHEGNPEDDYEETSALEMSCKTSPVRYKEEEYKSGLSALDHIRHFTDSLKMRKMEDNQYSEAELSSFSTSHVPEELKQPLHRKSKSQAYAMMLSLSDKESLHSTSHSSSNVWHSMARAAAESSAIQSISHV

What was measured:
[1] = target: PAX8-BioID-HA fusion protein (human (endogenous in IGROV-1)) (UniProt Q06710); assay: proximity labelling; BioID-WB: IGROV-1 PAX8-BioID clones B3 and C5, 50 uM biotin or DMSO for 24 h, RIPA lysate, streptavidin beads overnight at 4 °C, Western blot
[2] = target: PAX8-BioID-HA fusion protein (human (endogenous in IGROV-1)) (UniProt Q06710); assay: proximity labelling; BioID with quantitative TMT mass spectrometry: IGROV-1 PAX8-BioID cells with or without 10 uM biotin for 24 h, RIPA lysate, streptavidin-agarose enrichment, on-bead digestion

binding [1]	binding [2]	Substance
binds		MDS1-EVI1 (PRDM3) (from UniProt Q03112-3 1-1239)
	binds	MECOM (from UniProt Q03112-3 1-1239)
